From US20050095604A1 (published 2005)
These are yes or no findings as the source states them, for the method shown. Some results given as binding are weak or reduced against the parent protein; the word gives no strength.

By UniProt entry, the sequences of proteins in these tests, tags left out. Where a name states a change or a piece, a line headed by the entry shows the natural chain unless it says otherwise. Residues count along the entry.
UniProt Q92542, residues 34-709: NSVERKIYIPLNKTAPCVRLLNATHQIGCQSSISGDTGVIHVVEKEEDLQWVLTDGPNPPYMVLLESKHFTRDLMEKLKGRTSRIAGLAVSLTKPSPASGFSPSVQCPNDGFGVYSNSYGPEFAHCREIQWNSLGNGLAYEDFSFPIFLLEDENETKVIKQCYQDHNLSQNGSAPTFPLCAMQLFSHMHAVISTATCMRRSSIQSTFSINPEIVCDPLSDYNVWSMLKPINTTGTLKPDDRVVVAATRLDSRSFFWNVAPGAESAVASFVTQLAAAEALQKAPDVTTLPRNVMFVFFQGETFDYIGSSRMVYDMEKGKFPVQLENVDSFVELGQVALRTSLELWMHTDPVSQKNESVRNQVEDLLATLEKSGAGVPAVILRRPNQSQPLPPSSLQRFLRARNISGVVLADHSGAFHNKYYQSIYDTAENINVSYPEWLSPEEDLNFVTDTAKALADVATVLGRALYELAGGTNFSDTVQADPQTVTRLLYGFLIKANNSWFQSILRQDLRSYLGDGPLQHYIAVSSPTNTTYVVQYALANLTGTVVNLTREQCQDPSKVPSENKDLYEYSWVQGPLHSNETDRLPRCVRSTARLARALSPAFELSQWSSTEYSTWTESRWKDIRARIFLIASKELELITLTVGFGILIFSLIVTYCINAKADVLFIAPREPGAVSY
UniProt Q96BI3: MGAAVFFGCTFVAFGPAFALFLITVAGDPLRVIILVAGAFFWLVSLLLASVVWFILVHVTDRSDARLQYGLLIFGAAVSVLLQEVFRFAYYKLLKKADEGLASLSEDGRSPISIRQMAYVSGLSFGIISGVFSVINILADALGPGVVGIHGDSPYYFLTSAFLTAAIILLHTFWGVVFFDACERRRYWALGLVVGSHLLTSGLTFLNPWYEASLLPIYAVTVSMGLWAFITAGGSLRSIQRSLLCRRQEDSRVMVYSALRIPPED

What was measured:
[1] = target: endogenous nicastrin of human HEK293 cells (human) (UniProt Q92542); assay: Talon metal-affinity isolation of hPSF (V5 tag and 6xHis) from HEK293 lysates, Western blot
[2] = target: endogenous nicastrin of human HEK293 cells (human) (UniProt Q92542); assay: Talon cobalt-affinity isolation of V5/6xHis-tagged hPSF from 1% CHAPSO lysates of stable HEK293 cells, Western blot for nicastrin

binding [1]: binds
binding [2]: binds
Substance: human presenilin stabilization factor (PSF) with C-terminal V5 and poly-histidine (6xHis) tags (from UniProt Q96BI3 1-242)
